Among all 350,000 compounds or so, about 220 (0.063%) were called active. Inconclusive results, whose numbers are uncertain, are shown with a selection of clear calls. The call rests on the fitted dose curve; in most records, active means well fitted activation curve with a large enough effect; inconclusive means small, poorly fitted or top-dose-only effect; inactive means no such curve, though single readings can be large or run the other way. Potencies beside an inconclusive call are fits to weak or partial responses and may not hold up.
experiment: qHTS for Activators of Integrin-Mediated Alleviation for Muscular Dystrophy; settings: alpha7betagal myoblasts, beta-gal FDG fluorescence, 48 h; activation: at 38.3 µM (top of the series); further: nearly all actives have a fitted effect of over 60% in size;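 on activation: 100% = response of the positive control SU9516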
Outline: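 Alpha7betagal+/- myoblasts (passage 13) were plated 16-24 hr, then exposed to compounds (1:260 dilution of DMSO stock) for 48 hours at 37C. After MPER lysis, β-galactosidase reporter activity was read as FDG fluorescence (ex 480/em 540) after 30 minutes.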
Potency means the concentration at half of the fitted maximal effect.

SMILES | Potency | activation
N#C/C(=C\c1ccncc1)c1ccccn1 | inconclusive: 17.8 µM [activator, partial curve, poor fit] | –
O=C(COC(=O)c1ccco1)Nc1nc2ccc([N+](=O)[O-])cc2s1 | inconclusive: 2.24 µM [activator, partial curve, poor fit] | –
CC(C)c1csc2nc3n(c(=O)c12)CCCCC3 | inconclusive: 3.55 µM [activator, partial curve, poor fit] | –
CC(=O)Nc1ccc(C(=O)N/C(=C/c2ccccc2)C(=O)N2CCCCC2)cc1 | inconclusive: 28.2 µM [activator, single point] | –
CSc1nnc(-c2ccccc2)c(-c2ccccc2)n1 | inconclusive: 5.01 µM [activator, single point] | –
Cc1cc(C)n(CCC(=O)N2c3ccccc3CC2C)n1 (stereo not drawn) | inconclusive: 3.16 µM [activator, partial curve] | –
COc1cc(C(=O)Nc2nnc(C3=COCCO3)o2)cc(OC)c1OC | inconclusive: 12.6 µM [activator, partial curve, poor fit] | –
Cc1cc(=O)oc2cc(OCC(=O)Nc3ccc(N4CCC(C)CC4)cc3)ccc12 | inconclusive: 4.47 µM [activator, single point] | –
O=c1[nH]n2c(=O)c3c([nH]c2c1N=Nc1cccc(Cl)c1)CCC3 | inconclusive: 2.24 µM [activator, full curve] | –
O=C1C(=O)c2ccccc2C(O)=C1CCCCl | inconclusive: 28.2 µM [activator, single point] | –
CCOCCCNC(=O)c1cccc(NC(=O)C2=C(C)OCCS2)c1 | inconclusive: 5.01 µM [activator, single point] | –
C=CC[C@H](CC(=O)N(CCO)Cc1ccccc1)C(=O)N[C@@H](C)COC(=O)[C@@H](CC=C)Cc1ccc(F)cc1 | inactive | –
Cc1c(Cl)c(C(=O)NNC(=S)NCc2ccco2)nn1C | inconclusive: 5.01 µM [activator, partial curve, poor fit] | –
CC(=O)Nc1ccc(NC(=O)c2cc(=O)c3ccccc3o2)cc1 | inconclusive: 10 µM [activator, single point] | –
COc1ccccc1C(=O)NCCC(=O)NNC(=O)Cn1ccc(C(F)(F)F)n1 | inconclusive: 10 µM [activator, partial curve] | –
Cc1cccc(C)c1N1C(=O)CC(N2CCSCC2)C1=O (stereo not drawn) | inactive | –
COc1ccccc1/C=C/CN1CCCC(CCC(=O)NCc2ccc(F)c(F)c2)C1 (stereo not drawn) | inactive | –
Cn1c(CNc2ccc(Br)cc2)nc2ccccc21 | – | inconclusive: 6.29% [activator]
Cc1cc(C)c(S(=O)(=O)Nc2ccc(C(=O)O)cc2)cc1S(=O)(=O)Nc1ccc(C(=O)O)cc1 | inconclusive: 28.2 µM [activator, single point] | –
O=C(c1ccc(NC(=S)NCc2ccco2)cc1)N1CCOCC1 | inactive | –
Cc1cccc(Cn2cc(/C=C/[N+](=O)[O-])c3ccccc32)c1 | inactive | –
C[C@@H]1ON(C)[C@H]2C[C@H]3c4[nH]c5ccccc5c4CCN3C[C@@H]12 | inactive | –

Record cards, from the list above. Values in the order: Potency | activation
CC(=O)Nc1ccc(C(=O)N/C(=C/c2ccccc2)C(=O)N2CCCCC2)cc1 is listed as inconclusive: 28.2 µM [activator, single point] | –
COc1ccccc1C(=O)NCCC(=O)NNC(=O)Cn1ccc(C(F)(F)F)n1 is listed as inconclusive: 10 µM [activator, partial curve] | –

The list continues:

SMILES | Potency | activation
CN(C)C=NC(=O)c1cc(C(=O)c2ccc(F)cc2)c[nH]1 | inconclusive: 28.2 µM [activator, single point] | –
Cc1c(N2C(=O)C3C4C=CC(C5CC45)C3C2=O)c(=O)n(-c2ccccc2)n1C (stereo not drawn) | inconclusive: 5.01 µM [activator, single point] | –
CCOC(=O)c1nc(C)n(-c2ccc([N+](=O)[O-])cc2)n1 | inconclusive: 5.01 µM [activator, partial curve, poor fit] | –
Cc1cccc(NC(=O)c2cc(NC(=O)c3ccco3)ccc2Cl)n1 | inactive | –
Cc1ccc(N(CC(=O)NC(C)c2ccccc2)S(=O)(=O)c2c(C)n[nH]c2C)cc1 (stereo not drawn) | inconclusive: 0.891 µM [activator, full curve, poor fit] | –
CCN(CC)c1ccc(C(=C2C=CC(=[N+](CC)CC)C=C2)c2ccccc2)cc1 | – | inconclusive: -57.2% [activator]
O=C1CCCN1C(=O)CSc1nnnn1-c1ccccc1 | inconclusive: 2.82 µM [activator, single point] | –
O=C(NCc1ccc2c(c1)OCO2)C1CCN(c2nccc(C(F)(F)F)n2)CC1 | inconclusive: 22.4 µM [activator, single point] | –
CC(C)CC(=O)Nc1nnc(SCC(=O)NCC2CCCO2)s1 (stereo not drawn) | inconclusive: 7.94 µM [activator, partial curve, poor fit] | –
O=C1N[C@@H](Cc2ccccc2)C(=O)N2CCC[C@@H]12 | inactive | –
Cc1cc(C)n(-c2ccc(NC(=O)C3CCN(Cc4cc(C)c(C)o4)CC3)cc2)n1 | inconclusive: 2 µM [activator, partial curve, poor fit] | –
O=C(Cn1cnc2ccccc21)Nc1ccc(F)c(F)c1 | inconclusive: 0.447 µM [activator, partial curve, poor fit] | –
O=C(O)c1ccc([N+](=O)[O-])cc1Sc1ccsc1 | inconclusive: 31.6 µM [activator, single point] | –
Cc1c(=O)n(OCc2ccccc2)c2ccccc2[n+]1[O-] | inconclusive: 7.94 µM [activator, partial curve, poor fit] | –
CC(=O)N1CCOc2ccc(S(=O)(=O)N3CCC(C)CC3)cc21 | inconclusive: 2.82 µM [activator, single point] | –
O=C(c1cc(C(=O)N2CCOCC2)c2nc3ccccc3n2c1)c1ccccc1O | inconclusive: 1.58 µM [activator, partial curve, poor fit] | –
COC(=O)C1=C(C)N(C)C(C)=C(C(=O)OC)C1c1ccsc1 | inactive | –
CC(C)c1ccc(OC(=O)c2ccc3c(=O)n4c(nc3c2)CCC4)cc1 | inactive | –
CCn1c(SCC(=O)NC2CCCC2)nnc1C(C)C | inactive | –
Cc1nn(-c2ccccc2)c(C)c1C(=O)OCC(=O)Nc1ccc(C(N)=O)cc1 | inconclusive: 3.16 µM [activator, single point] | –
Cc1ccc(N(C(C)C(=O)NCc2ccncc2)S(C)(=O)=O)cc1C (stereo not drawn) | inconclusive: 11.2 µM [activator, single point] | –
